For some assays here: The name of at least one read-out is uncertain. Some results were stated once for a whole list of compounds, not compound by compound.
Columns and labels:
[1] = Pharmacokinetics in C57BL/6 female mice, IV and PO; assay type: in vivo; settings: PO 30 mg/kg, plasma
Method: The pharmacokinetic characteristics of Compound 5 (BBL-100455) were estimated in C57BL/6 female mice following intravenous (IV) bolus and oral (PO) administration.
In short, the compound of the disclosure at 0.6 mg/mL in PBS containing 5% MSO and 25% PEG-400 was administered by IV injection (3 mg/kg). For PO (30 mg/kg), the compound of the disclosure at 3 mg/mL in PBS containing 10% MSO and 50% PEG-400 was orally administered. At the given time points (0.083 h, 0.167 h, 0.25 h, 0.50 h 1 h, 2 h, 4 h, 7 h, 16 h and 24 h), blood samples were collected using heparinized calibrated pipettes. Samples were centrifuged at 15000 rpm for 10 min. Subsequently, blood plasma was collected from the upper layer. The plasma was frozen at −80° C. for later analysis. At 2 h. 7 h and 24 h, brain samples were collected and immediately stored at […] for later analysis.
The analytical curve was constructed using ten non-zero standards with Compound 5 (BBL-100455) concentration ranging from 1 to 2500 ng/ml in the blank plasma and brain tissue. A blank sample (matrix sample processed without internal standard) was used to exclude contamination. The linear regression analysis of BBL- 100455 was performed by plotting the peak area ratio (y) against the BBL-100455 concentrations (x) in ng/ml. […]

Protein sequences, listed by entry. Tags and fused reporters are not part of them.
UniProt Q8N884, whole entry: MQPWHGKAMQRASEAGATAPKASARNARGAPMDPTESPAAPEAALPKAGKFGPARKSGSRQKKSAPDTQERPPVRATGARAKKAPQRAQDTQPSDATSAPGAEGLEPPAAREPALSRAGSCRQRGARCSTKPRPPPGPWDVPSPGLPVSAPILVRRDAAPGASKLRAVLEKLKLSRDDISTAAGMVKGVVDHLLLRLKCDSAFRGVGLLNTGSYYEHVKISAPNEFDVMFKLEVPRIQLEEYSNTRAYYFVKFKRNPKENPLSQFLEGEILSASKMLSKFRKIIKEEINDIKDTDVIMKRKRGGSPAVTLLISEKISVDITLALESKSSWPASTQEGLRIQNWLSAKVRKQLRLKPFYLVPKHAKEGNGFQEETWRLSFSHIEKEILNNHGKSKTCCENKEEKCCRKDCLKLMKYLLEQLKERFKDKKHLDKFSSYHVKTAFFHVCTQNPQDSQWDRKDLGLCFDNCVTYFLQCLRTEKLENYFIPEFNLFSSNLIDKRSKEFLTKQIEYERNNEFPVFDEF

cGAS = cGAS (Homo sapiens, UniProt Q8N884); assay: Transcreener cGAS enzymatic assay (FP); assay type: biochemical; settings: Mn2+ 200 μM vs without
Method: Structural, biochemical and biophysical analysis and selectivity profiling: Potency and MOA studies, including Mn^2+ sensitivity, were performed using the Transcreener cGAS enzymatic assay, which is manufactured at BellBrook Labs (Fitchburg, Wisconsin, USA). This homogenous cGAS enzymatic assay was developed with fluorescence polarization (FP) and time-resolved Forster resonance energy transfer (TR-FRET) readouts, as described in International Patent Publication WO 2020/142729, incorporated by reference herein in its entirety. Plates are read on a PHERAstar FSX multimode reader (BMG). The compounds of the disclosure were tested for inhibition of cGAS ([…]) using this cGAS enzymatic assay under standard conditions (100 μM ATP and GTP, 62.5 nM bp ISD, 60 minute reactions), high ATP and GTP (1 mM) to mimic physiological conditions, in the presence of 200 μM MnCl2, and with mouse cGAS under standard conditions.
The IC50 values for FP under standard and under physiological conditions were determined for several exemplary compounds of the invention. The relative activities for FP Standard IC50 are shown in Table 2 below, where A represents <50 nM; B represents 50-100 nM; C represents 100-200 nM; D represents 200 nM-1μM; and E represents 1-10 μM. […]

SMILES	Vz/F [1] [L/h/kg]	Increase (shift) in IC50 when Mn2+ present (cGAS) [fold]
Cc1nc(N2C[C@@H](CC(=O)Nc3ccc(-c4ccccc4)cc3)C[C@H]2C(=O)O)c2oc3ccccc3c2n1 [Compound 5, (2S,4R)-4-(2-([1,1′-biphenyl]-4-ylamino)-2-oxoethyl)-1-(2-methylbenzofuro[3,2-d]pyrimidin-4-yl)pyrrolidine-2-carboxylic acid]	7.1776	
CCN(CC)CCCC(C)Nc1c2ccc(Cl)cc2nc2ccc(OC)cc12 (centres unmarked) [quinacrine, reference compound]		≤ 10

Source: patent US20240174684A1, “INHIBITORS OF cGAS ACTIVITY AS THERAPEUTIC AGENTS” (BELLBROOK LABS, LLC, priority 2021, published 2024)
